{"source": "PubChem BioAssay AID248", "about": "(DTP/NCI, 2004)", "test_system": "L1210 leukemia ip in BDF1 mice, survival T/C", "test": "NCI In Vivo Anticancer Drug Screen. Data for tumor model L1210 Leukemia (intraperitoneal) in B6D2F1 (BDF1) mice", "conditions": "T/C endpoint: mean survival time, higher T/C = longer survival", "key": {"[1]": {"conditions": "dose: 200.0 mg/kg/injection, schedule: Q04DX003 (ip), vehicle: saline"}, "[2]": {"conditions": "dose: 400.0 mg/kg/injection, schedule: Q04DX003 (ip), vehicle: saline"}, "[3]": {"conditions": "dose: 100.0 mg/kg/injection, schedule: Q04DX002 (ip), vehicle: saline with Tween-80"}, "[4]": {"conditions": "dose: 200.0 mg/kg/injection, schedule: Q04DX002 (ip), vehicle: saline with Tween-80"}, "[5]": {"conditions": "dose: 400.0 mg/kg/injection, schedule: Q04DX002 (ip), vehicle: saline with Tween-80"}}, "note": "The list shows only some results of the screen, not a fair sample: it gathers tests that were run many times, whatever their T/C, doses with no T/C, and many T/C values between a quarter and a half above the control. Further doses and runs are listed elsewhere. T/C is the treated group as % of the vehicle group. Some doses have a count of surviving animals in place of a T/C: the source files T/C as zero there, which appears to mark a toxic dose or a test without result, not a measured value. Some doses without a T/C left all or most animals alive at the check, yet need not have been tolerated: survival well below the control is almost never listed, so the zero probably covers shortened survival too. Counts of survivors are from the toxicity check (mostly the fifth day) where no day follows; animals may have died later. Schedules are NCI's codes, read here as Q, the interval in days (D) or hours (H), X, the number of doses. Some schedules carry Z or #; the key to these is not given. Where survival is the endpoint, this PubChem deposit counts one and a half times the control or more as active, and values a quarter to a half above the control carry no call in these data; other NCI protocols may use other cut-offs. Some T/C values carry the count of animals alive at the toxicity check (mostly the fifth day); where none is given, no animal had died by that day."}
{"smiles": "C[n+]1cc2c3ccccc3c(N)cc2c2ccccc21", "values": [{"measurement": "T/C", "setting": "dose: 12.5 mg/kg/injection, schedule: Q01DX009 (ip), vehicle: water", "value": "128 % of control [5 of 6 alive]"}, {"measurement": "T/C", "setting": "dose: 25.0 mg/kg/injection, schedule: Q01DX009 (ip), vehicle: water", "value": "131 % of control"}, {"measurement": "T/C", "setting": "dose: 25.0 mg/kg/injection, schedule: Q04DX003 (ip), vehicle: water", "value": "126 % of control"}, {"measurement": "survivor count", "setting": "dose: 50.0 mg/kg/injection, schedule: Q01DX009 (ip), vehicle: water", "value": "4 of 6"}, {"measurement": "T/C", "setting": "dose: 50.0 mg/kg/injection, schedule: Q04DX003 (ip), vehicle: water", "value": "129 % of control [5 of 6 alive]"}, {"measurement": "survivor count", "setting": "dose: 75.0 mg/kg/injection, schedule: Q01DX009 (ip), vehicle: water", "value": "3 of 6"}, {"measurement": "survivor count", "setting": "dose: 100.0 mg/kg/injection, schedule: Q04DX003 (ip), vehicle: water", "value": "5 of 6"}, {"measurement": "survivor count", "setting": "dose: 200.0 mg/kg/injection, schedule: Q04DX003 (ip), vehicle: water", "value": "4 of 6"}, {"measurement": "survivor count", "setting": "dose: 400.0 mg/kg/injection, schedule: Q04DX003 (ip), vehicle: water", "value": "1 of 6"}]}
{"smiles": "O=S1(=O)/C(=C\\C2CCCCC2)c2c1c(-c1ccccc1)c1ccccc1c2-c1ccccc1", "values": [{"measurement": "survivor count", "setting": "dose: 100.0 mg/kg/injection, schedule: Q01DX001 (ip), vehicle: carboxymethylcellulose (CMC)", "value": "4 of 4"}]}
{"smiles": "OC(CNc1ccccc1)CN1CCCCC1", "note": "(stereo not drawn)", "values": [{"measurement": "survivor count", "setting": "[1]", "value": "3 of 6"}, {"measurement": "survivor count", "setting": "[2]", "value": "0 of 6"}]}
{"smiles": "C[S+](C)Cc1ccc(C(=O)Oc2ccc([N+](=O)[O-])cc2)cc1", "values": [{"measurement": "survivor count", "setting": "[1]", "value": "5 of 6"}, {"measurement": "survivor count", "setting": "dose: 400.0 mg/kg/injection, schedule: Q01DX009 (ip), vehicle: saline", "value": "0 of 6"}, {"measurement": "survivor count", "setting": "[2]", "value": "2 of 6"}]}
{"smiles": "COc1ccc(CC(C)=C(C#N)C#N)cc1OC", "values": [{"measurement": "survivor count", "setting": "[3]", "value": "1 of 3"}, {"measurement": "survivor count", "setting": "[4]", "value": "0 of 3"}, {"measurement": "survivor count", "setting": "[5]", "value": "0 of 3"}]}
{"smiles": "CC1(C)N=C(N)N=C(N)N1c1ccc(/C=C/C(=O)Nc2ccc(S(=O)(=O)F)cc2)cc1", "values": [{"measurement": "survivor count", "setting": "dose: 300.0 mg/kg/injection, schedule: Q01DX001 (ip), vehicle: Klucel (hydroxypropylcellulose) (HPC)", "value": "6 of 6"}]}
{"smiles": "COC(=O)CCNc1c(OC)ccc2ccccc12", "values": [{"measurement": "survivor count", "setting": "dose: 200.0 mg/kg/injection, schedule: Q01DX009 (ip), vehicle: Klucel (hydroxypropylcellulose) (HPC)", "value": "6 of 6"}]}
{"smiles": "NS(=O)(=O)c1ccc(NC(=O)Nc2ccccc2)cc1", "values": [{"measurement": "survivor count", "setting": "dose: 400.0 mg/kg/injection, schedule: Q01DX009 (ip), vehicle: Klucel (hydroxypropylcellulose) (HPC)", "value": "2 of 6"}]}
{"smiles": "CC1CN=C(c2ccc(NC(=O)Nc3ccc(C(=O)Nc4ccc(C5=NCC(C)N5)cc4)cc3)cc2)N1", "note": "(stereo not drawn)", "values": [{"measurement": "T/C", "setting": "dose: 3.75 mg/kg/injection, schedule: Q01DX Z (ip), vehicle: saline", "value": "130 % of control"}, {"measurement": "survivor count", "setting": "dose: 60.0 mg/kg/injection, schedule: Q01DX Z (ip), vehicle: other", "value": "0 of 6"}, {"measurement": "survivor count", "setting": "dose: 120.0 mg/kg/injection, schedule: Q01DX Z (ip), vehicle: other", "value": "0 of 6"}]}
{"smiles": "O=C(Nc1cccc(C2=NCC(O)CN2)c1)c1ccc(C(=O)Nc2cccc(C3=NCC(O)CN3)c2)c(Cl)c1", "note": "(stereo not drawn)", "values": [{"measurement": "survivor count", "setting": "dose: 12.5 mg/kg/injection, schedule: Q01DX Z (ip), vehicle: water", "value": "2 of 6"}, {"measurement": "survivor count", "setting": "dose: 25.0 mg/kg/injection, schedule: Q01DX Z (ip), vehicle: water", "value": "0 of 6"}]}
{"smiles": "Nc1c[nH]c(=S)s1", "values": [{"measurement": "survivor count", "setting": "dose: 400.0 mg/kg/injection, schedule: Q01DX001 (ip), vehicle: Klucel (hydroxypropylcellulose) (HPC)", "value": "0 of 6"}]}
{"smiles": "CC(N)CC12CC3CC(CC(C3)C1)C2", "note": "(stereo not drawn)", "values": [{"measurement": "survivor count", "setting": "dose: 100.0 mg/kg/injection, schedule: Q04DX002 (ip), vehicle: saline", "value": "2 of 3"}, {"measurement": "survivor count", "setting": "dose: 200.0 mg/kg/injection, schedule: Q04DX002 (ip), vehicle: saline", "value": "1 of 3"}, {"measurement": "survivor count", "setting": "dose: 400.0 mg/kg/injection, schedule: Q04DX002 (ip), vehicle: saline", "value": "0 of 3"}]}
{"smiles": "O=C1c2ccccc2C(=O)c2c(O)c3c(c(O)c21)CCCC3OC1OC(CO)C(O)C(O)C1O", "note": "(stereo not drawn)", "values": [{"measurement": "survivor count", "setting": "dose: 100.0 mg/kg/injection, schedule: Q01DX001 (ip), vehicle: saline", "value": "4 of 4"}, {"measurement": "survivor count", "setting": "dose: 200.0 mg/kg/injection, schedule: Q01DX001 (ip), vehicle: saline", "value": "4 of 4"}]}
{"smiles": "CC(=O)OCC1OC(=O)C(C)N(C)C(=O)CN(C)C(=O)C2C(=O)CC(C)N2C(=O)C(C(C)C)NC(=O)C1NC(=O)c1c2nc3c(C(=O)NC4C(=O)NC(C(C)C)C(=O)N5C(C)CC(OC(C)=O)C5C(=O)N(C)CC(=O)N(C)C(C(C)C)C(=O)OC4C)ccc(C)c3oc-2c(C)c(=O)c1N", "note": "(stereo not drawn)", "values": [{"measurement": "T/C", "setting": "dose: 0.8 mg/kg/injection, schedule: Q01DX009 (ip), vehicle: saline with Tween-80", "value": "126 % of control"}]}
{"smiles": "CCOC(=O)c1ccc(NC(=S)Nc2ccccc2S)cc1", "values": [{"measurement": "survivor count", "setting": "[4]", "value": "1 of 3"}, {"measurement": "survivor count", "setting": "[5]", "value": "0 of 3"}]}
{"smiles": "O=C(c1ccccc1)C(O)(CCP(=O)(c1ccccc1)c1ccccc1)c1ccccc1", "note": "(stereo not drawn)", "values": [{"measurement": "survivor count", "setting": "dose: 300.0 mg/kg/injection, schedule: Q01DX001 (ip), vehicle: carboxymethylcellulose (CMC)", "value": "5 of 6"}]}
{"smiles": "c1ccc(CSc2nccc(NN=C3CCCCC3)n2)cc1", "values": [{"measurement": "survivor count", "setting": "dose: 100.0 mg/kg/injection, schedule: Q01DX001 (ip), vehicle: DMSO", "value": "6 of 6"}, {"measurement": "survivor count", "setting": "dose: 300.0 mg/kg/injection, schedule: Q01DX009 (ip), vehicle: DMSO", "value": "4 of 6"}]}
{"smiles": "Cc1ccc2c(c1)[n+]([O-])c(N)c(C#N)[n+]2[O-]", "values": [{"measurement": "survivor count", "setting": "dose: 400.0 mg/kg/injection, schedule: Q04DX002 (ip), vehicle: Klucel (hydroxypropylcellulose) (HPC)", "value": "1 of 3"}]}
{"smiles": "CC(=O)Nc1cccc2nsnc12", "values": [{"measurement": "survivor count", "setting": "dose: 400.0 mg/kg/injection, schedule: Q04DX003 (ip), vehicle: Klucel (hydroxypropylcellulose) (HPC)", "value": "1 of 6"}]}
{"smiles": "CC(C)C(CN)(CCCN1CCCC1)c1cccc2ccccc12", "note": "(stereo not drawn)", "values": [{"measurement": "survivor count", "setting": "dose: 200.0 mg/kg/injection, schedule: Q04DX003 (ip), vehicle: saline with Tween-80", "value": "1 of 6"}, {"measurement": "survivor count", "setting": "dose: 400.0 mg/kg/injection, schedule: Q04DX003 (ip), vehicle: saline with Tween-80", "value": "0 of 6"}]}
{"smiles": "COc1ccc(C(CC(=O)c2ccccc2)Sc2ccccc2N)cc1OC", "note": "(stereo not drawn)", "values": [{"measurement": "survivor count", "setting": "dose: 400.0 mg/kg/injection, schedule: Q01DX005 (ip), vehicle: Klucel (hydroxypropylcellulose) (HPC)", "value": "1 of 3"}]}
{"smiles": "CCCCC(CSC#N)SC#N", "note": "(stereo not drawn)", "values": [{"measurement": "survivor count", "setting": "[3]", "value": "0 of 3"}, {"measurement": "survivor count", "setting": "[4]", "value": "0 of 3"}, {"measurement": "survivor count", "setting": "[5]", "value": "0 of 3"}]}
{"smiles": "C/C=C1\\C[C@@H]2C(OC)Nc3cc(O)c(OC)cc3C(=O)N2C1", "note": "(stereo partly drawn)", "values": [{"measurement": "survivor count", "setting": "dose: 0.37 mg/kg/injection, schedule: Q01DX009 (ip), vehicle: saline", "value": "1 of 3"}, {"measurement": "survivor count", "setting": "dose: 0.75 mg/kg/injection, schedule: Q01DX009 (ip), vehicle: saline", "value": "1 of 3"}]}
